Experimental data from publication PMC11554844, “BEACH domain proteins function as cargo-sorting adaptors in secretory and endocytic pathways” (The Journal of Cell Biology, 2024).
No constants are given. Whether binding was seen depends on the method and setting. Binding seen in cells or lysates may run through a third protein. Some results given as binding are weak or reduced against the parent protein; the word gives no strength. For part of these data: Sequences can lack the tags named with a protein.

Protein sequences, listed by entry. Tags and fused reporters are not part of them. Lines headed by an entry give the natural chain unless they say otherwise; changes in a name come on top. Residues count along the entry.
UniProt P16410, residues 187-223: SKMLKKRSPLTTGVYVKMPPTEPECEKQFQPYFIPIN
UniProt Q15375, residues 579-998: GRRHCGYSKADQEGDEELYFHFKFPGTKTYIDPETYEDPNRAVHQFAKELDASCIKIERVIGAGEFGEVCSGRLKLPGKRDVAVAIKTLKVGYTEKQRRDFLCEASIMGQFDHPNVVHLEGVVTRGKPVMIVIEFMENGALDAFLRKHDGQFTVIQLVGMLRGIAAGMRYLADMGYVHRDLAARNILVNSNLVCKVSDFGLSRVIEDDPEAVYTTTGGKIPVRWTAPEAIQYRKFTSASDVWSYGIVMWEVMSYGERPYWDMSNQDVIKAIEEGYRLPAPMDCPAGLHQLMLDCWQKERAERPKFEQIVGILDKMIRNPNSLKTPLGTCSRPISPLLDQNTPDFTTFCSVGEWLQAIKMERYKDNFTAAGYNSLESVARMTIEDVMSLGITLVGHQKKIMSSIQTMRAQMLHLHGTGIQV
UniProt P22455, residues 388-802: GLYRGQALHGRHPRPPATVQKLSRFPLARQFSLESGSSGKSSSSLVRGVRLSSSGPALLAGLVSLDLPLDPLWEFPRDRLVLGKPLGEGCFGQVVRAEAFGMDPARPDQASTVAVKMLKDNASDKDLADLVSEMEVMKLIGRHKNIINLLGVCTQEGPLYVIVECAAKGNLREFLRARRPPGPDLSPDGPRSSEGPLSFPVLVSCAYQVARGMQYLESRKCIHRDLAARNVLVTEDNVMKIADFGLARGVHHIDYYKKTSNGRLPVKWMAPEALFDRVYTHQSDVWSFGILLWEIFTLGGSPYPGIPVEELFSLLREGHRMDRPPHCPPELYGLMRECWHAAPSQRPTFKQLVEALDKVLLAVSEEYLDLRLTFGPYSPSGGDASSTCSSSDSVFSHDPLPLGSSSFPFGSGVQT
UniProt P78504, residues 1093-1218: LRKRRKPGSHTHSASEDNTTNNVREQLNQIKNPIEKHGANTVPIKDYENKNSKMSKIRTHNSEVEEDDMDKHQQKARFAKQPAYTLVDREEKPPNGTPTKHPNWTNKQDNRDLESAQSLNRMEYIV

How the values were obtained:
Test in all cases: pull-down; GST fusion immobilised on glutathione-sepharose beads, incubated overnight at 4°C with 500 μl lysate of HeLa cells expressing a 3xFlag-EGFP-BDCP; washed six times in 50 mM Tris-HCl pH 7.4, 150 mM NaCl, 1% Triton X-100; bound protein detected with anti-flag antibody; only the target purified
[1] = molecular target: GST-CTLA4 (201–215) (human) (UniProt P16410)
[2] = molecular target: GST-CTLA4(187–223) (human) (UniProt P16410)
[3] = molecular target: GST-CTLA4(201–215)M204A (human) (UniProt P16410)
[4] = molecular target: GST-CTLA4(201–215)Y201A (human) (UniProt P16410)
[5] = molecular target: T1, GST-EFNB2(251–333) (human) (UniProt P52799)
T1 sequence: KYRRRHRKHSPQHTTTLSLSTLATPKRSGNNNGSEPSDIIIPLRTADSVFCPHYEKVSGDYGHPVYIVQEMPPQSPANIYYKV

[6] = molecular target: GST-EPHA7(579–998) (human) (UniProt Q15375)
[7] = molecular target: GST-FGFR4(388–802) (human) (UniProt P22455)
[8] = molecular target: T2, GST-FLRT2(563–660) (human) (UniProt O43155)
T2 sequence: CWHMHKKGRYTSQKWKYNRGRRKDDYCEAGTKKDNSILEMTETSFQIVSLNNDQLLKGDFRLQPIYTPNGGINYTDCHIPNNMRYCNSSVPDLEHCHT

[9] = molecular target: GST-JAG1(1093–1218) (human) (UniProt P78504)
[10] = molecular target: T3, GST-ROBO2(883–1378) (human) (UniProt Q9HCK4)
T3 sequence: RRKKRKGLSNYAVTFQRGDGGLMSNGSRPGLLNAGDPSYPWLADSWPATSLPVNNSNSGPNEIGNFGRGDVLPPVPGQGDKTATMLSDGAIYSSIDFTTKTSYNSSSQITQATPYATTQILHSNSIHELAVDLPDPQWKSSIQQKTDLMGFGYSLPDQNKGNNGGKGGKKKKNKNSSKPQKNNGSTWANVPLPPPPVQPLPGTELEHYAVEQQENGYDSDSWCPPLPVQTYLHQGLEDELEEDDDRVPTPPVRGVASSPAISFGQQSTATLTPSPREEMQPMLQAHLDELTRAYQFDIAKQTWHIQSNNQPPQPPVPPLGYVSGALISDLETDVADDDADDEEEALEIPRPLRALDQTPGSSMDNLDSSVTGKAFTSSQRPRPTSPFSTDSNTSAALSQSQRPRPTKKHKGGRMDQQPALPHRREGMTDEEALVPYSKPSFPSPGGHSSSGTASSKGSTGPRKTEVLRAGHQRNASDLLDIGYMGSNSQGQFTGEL

[11] = molecular target: T4, GST-SDK1(2031–2213) (human) (UniProt Q7Z5N4)
T4 sequence: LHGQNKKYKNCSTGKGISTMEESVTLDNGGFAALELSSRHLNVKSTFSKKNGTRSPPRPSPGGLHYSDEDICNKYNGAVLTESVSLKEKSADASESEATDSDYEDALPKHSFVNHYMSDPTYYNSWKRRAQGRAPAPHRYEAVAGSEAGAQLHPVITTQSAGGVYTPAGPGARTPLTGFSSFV

[12] = molecular target: T5, GST-TGFBR3(810–851) (human) (UniProt Q03167)
T5 sequence: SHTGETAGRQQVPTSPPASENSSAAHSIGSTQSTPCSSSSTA

Measured: binding

3xFlag-EGFP-ALFY (from UniProt Q8IZQ1-1 1-3526)
binds: [1] | [2] | [3] | [4] | [5] | [6] | [7] | [8] | [9] | [10] | [11] | [12]

3xFlag-EGFP-LYST (from UniProt Q99698-1 1-3801)
binds: [1]

3xFlag-EGFP-NBEAL2 (from UniProt Q6ZNJ1-1 1-2754)
binds: [1]

3xFlag-EGFP-LRBA (from UniProt P50851-1 1-2863)
binds: [1]
